{"source": "the supplement of paper PMC4683952", "note": "Where a name gives a salt, the structure may show the parent alone. The whole screen tested about 1,200 compounds, of which about 50 (4%) showed activity. Cut-off read from the data, not from the text of the source: all actives reach 1.3 or more but so do some inactives. Some of the results follow."}
{"test_system": "Lgr5 (MarsCy1-Lgr5-EGFP, U2OS)", "test": "cell-surface Lgr5 expression (SCi1 fluorescence, background-subtracted) relative to WT DMSO (fold of DMSO control); higher = more Lgr5 at the plasma membrane, active = hit call of the paper", "details": "U2OS MarsCy1-Lgr5-EGFP stable; treatment time: overnight; 16 µM; library: Johns Hopkins Clinical Compound Library"}
{"smiles": "Clc1ccc(COC(Cn2ccnc2)c2ccc(Cl)cc2Cl)cc1", "note": "(stereo not drawn) [Econazole]", "cell-surface Lgr5 expression": "inactive: 0.806"}
{"smiles": "Clc1ccccc1C(c1ccccc1)(c1ccccc1)n1ccnc1", "note": "[Clotrimazole]", "cell-surface Lgr5 expression": "inactive: 0.707"}
{"smiles": "NC(=O)NO", "note": "[Hydroxyurea]", "cell-surface Lgr5 expression": "inactive: 1.04"}
{"smiles": "CC(=O)c1ccc2c(c1)N(CCCN1CCN(CCO)CC1)c1ccccc1S2", "note": "[Acetophenazine maleate]", "cell-surface Lgr5 expression": "inactive: 1.05"}
{"smiles": "CCN1CCCC1CNC(=O)c1cc(S(N)(=O)=O)ccc1OC", "note": "(racemic) [Sulpiride (+/-)-]", "cell-surface Lgr5 expression": "inactive: 1.07"}
{"smiles": "O=C(O)c1cc(=O)c2c(OCC(O)COc3cccc4oc(C(=O)O)cc(=O)c34)cccc2o1", "note": "[Cromolyn]", "cell-surface Lgr5 expression": "inactive: 0.94"}
{"smiles": "CCCCOc1ccc(CC(=O)NO)cc1", "note": "[Bufexamac]", "cell-surface Lgr5 expression": "active: 1.82"}
{"smiles": "CC(=O)OC(C)C[N+](C)(C)C", "note": "(stereo not drawn) [Methacholine chloride]", "cell-surface Lgr5 expression": "inactive: 0.738"}
{"smiles": "O=C([O-])[O-].[Ca+2]", "note": "[Calcium carbonate]", "cell-surface Lgr5 expression": "inactive: 0.936"}
{"smiles": "CCCCCCCCCCCCCCCCO", "note": "[Cetyl alcohol (1-Hexadecanol)]", "cell-surface Lgr5 expression": "inactive: 1.27"}
{"smiles": "O=S(=O)(O)c1cc(O)c2c(/N=N/c3ccc(Nc4ccccc4)c4c(S(=O)(=O)O)cccc34)cc(S(=O)(=O)O)cc2c1", "note": "[Anazolene sodium (Acid blue 92)]", "cell-surface Lgr5 expression": "inactive: 1.23"}
{"smiles": "Cc1c(O)cccc1C(=O)N[C@@H](CSc1ccccc1)[C@H](O)CN1C[C@H]2CCCC[C@H]2C[C@H]1C(=O)NC(C)(C)C", "note": "[Nelfinavir mesylate]", "cell-surface Lgr5 expression": "inactive: 0.364"}
{"smiles": "CCSc1ccc2c(c1)N(CCCN1CCN(C)CC1)c1ccccc1S2", "note": "[Thiethylperazine malate]", "cell-surface Lgr5 expression": "inactive: 1.12"}
{"smiles": "CN(C)CCC(c1ccccc1)c1ccccn1", "note": "(stereo not drawn) [Pheniramine]", "cell-surface Lgr5 expression": "inactive: 1.02"}
{"smiles": "O[C@@H]1CO[C@H]2[C@@H]1OC[C@@H]2O", "note": "[Isosorbide]", "cell-surface Lgr5 expression": "inactive: 1.26"}
{"smiles": "O=C1NC(c2ccccc2)(c2ccccc2)C(=O)N1COP(=O)(O)O", "note": "[Fosphenytoin sodium]", "cell-surface Lgr5 expression": "inactive: 0.73"}
{"smiles": "O=C(O)[C@@H](S)[C@@H](S)C(=O)O", "note": "[Succimer (meso-2,3-dimercaptosuccinic acid)]", "cell-surface Lgr5 expression": "inactive: 0.767"}
{"smiles": "CCOc1nc2cccc(C(=O)OC(C)OC(=O)OC3CCCCC3)c2n1Cc1ccc(-c2ccccc2-c2nn[nH]n2)cc1", "note": "(stereo not drawn) [Candesartan cilexetil]", "cell-surface Lgr5 expression": "inactive: 0.874"}
{"smiles": "O=C([O-])CN(CCN(CC(=O)[O-])CC(=O)[O-])CC(=O)[O-].[Fe+3].[Na+]", "note": "[Sodium feredetate (Ethylenediaminetetraacetic acid, EDTA)]", "cell-surface Lgr5 expression": "inactive: 0.765"}
{"smiles": "CNC1(C)C2CCC(C2)C1(C)C", "note": "(stereo not drawn) [Mecamylamine]", "cell-surface Lgr5 expression": "inactive: 1.13"}
{"smiles": "CCCCCCCCCCCCCCCCCC(=O)[O-].CCCCCCCCCCCCCCCCCC(=O)[O-].[Zn+2]", "note": "[Zinc stearate]", "cell-surface Lgr5 expression": "inactive: 0.658"}
{"smiles": "O=C(O)CCc1nc2ccccc2[nH]1", "note": "[Procodazole (2-Benzimidazolepropionic acid)]", "cell-surface Lgr5 expression": "inactive: 0.763"}
{"smiles": "C=C(NC(=O)C(=C)NC(=O)c1csc(C2=N[C@@H]3c4csc(n4)[C@H]4NC(=O)c5csc(n5)[C@H]([C@](C)(O)[C@@H](C)O)NC(=O)[C@H]5CSC(=N5)/C(=C/C)NC(=O)[C@H]([C@@H](C)O)NC(=O)c5csc(n5)[C@]3(CC2)NC(=O)[C@H](C)NC(=O)C(=C)NC(=O)[C@H](C)NC(=O)[C@H]([C@@H](C)CC)N[C@@H]2C=Cc3c([C@H](C)O)cc(nc3[C@H]2O)C(=O)O[C@@H]4C)n1)C(N)=O", "note": "[Thiostrepton]", "cell-surface Lgr5 expression": "inactive: 1.27"}
{"smiles": "Nc1nccs1", "note": "[Aminothiazole (2-aminothiazole)]", "cell-surface Lgr5 expression": "inactive: 0.92"}
{"smiles": "NC(=O)c1cccnc1", "note": "[Niacinamide hydrochloride]", "cell-surface Lgr5 expression": "inactive: 1.05"}
{"smiles": "Nc1c(N=Nc2ccc([N+](=O)[O-])cc2)c(S(=O)(=O)O)cc2cc(S(=O)(=O)O)c(N=Nc3ccccc3)c(O)c12", "note": "[Napthol blue black]", "cell-surface Lgr5 expression": "inactive: 0.637"}
{"smiles": "CC(C)(Oc1ccc(C2CC2(Cl)Cl)cc1)C(=O)O", "note": "(stereo not drawn) [Ciprofibrate]", "cell-surface Lgr5 expression": "inactive: 1.25"}
{"smiles": "CCn1cc(C(=O)O)c(=O)c2cc(F)c(N3CCNCC3)cc21", "note": "[Norfloxacin]", "cell-surface Lgr5 expression": "inactive: 1.21"}
{"smiles": "O=C(c1ccc(OCCN2CCCCC2)cc1)c1c(-c2ccc(O)cc2)sc2cc(O)ccc12", "note": "[Raloxifene hydrochloride]", "cell-surface Lgr5 expression": "inactive: 0.648"}
{"smiles": "O=P([O-])([O-])[O-].[Fe+3]", "note": "[Ferric phosphate]", "cell-surface Lgr5 expression": "inactive: 0.912"}
{"smiles": "NS(=O)(=O)c1cc2c(cc1C(F)(F)F)NC(Cc1ccccc1)NS2(=O)=O", "note": "(stereo not drawn) [Bendroflumethiazide]", "cell-surface Lgr5 expression": "inactive: 1.02"}
{"smiles": "S=P(N1CC1)(N1CC1)N1CC1", "note": "[Thiotepa (Triethylenethiophosphoramide)]", "cell-surface Lgr5 expression": "inactive: 1.19"}
{"smiles": "COc1cc(N)c(Cl)cc1C(=O)NC1CCN(Cc2ccccc2)CC1", "note": "[Clebopride]", "cell-surface Lgr5 expression": "inactive: 1.08"}
{"smiles": "Nc1nc(N)nc(-c2cc(Cl)ccc2Cl)n1", "note": "[Irsogladine maleate]", "cell-surface Lgr5 expression": "inactive: 1.11"}
{"smiles": "c1ccc(Cc2nc3ccccc3[nH]2)cc1", "note": "[Bendazol (2-Benzylbenzimidazole)]", "cell-surface Lgr5 expression": "inactive: 1.05"}
{"smiles": "COc1c(O)cc2c(c1O)[C@@H]1O[C@H](CO)[C@@H](O)[C@H](O)[C@H]1OC2=O", "note": "[Bergenin monohydrate]", "cell-surface Lgr5 expression": "inactive: 1.27"}
{"smiles": "COc1ccccc1OCCNCC(O)COc1cccc2[nH]c3ccccc3c12", "note": "(stereo not drawn) [Carvedilol]", "cell-surface Lgr5 expression": "inactive: 1.2"}
{"smiles": "O=C(O)c1cc(S(=O)(=O)O)ccc1O", "note": "[Sulfosalicylic acid (5-Sulfosalicylic acid dihydrate)]", "cell-surface Lgr5 expression": "inactive: 1.11"}
{"smiles": "O=C(NCC1CCCCN1)c1cc(OCC(F)(F)F)ccc1OCC(F)(F)F", "note": "(stereo not drawn) [Flecainide]", "cell-surface Lgr5 expression": "inactive: 1.21"}
{"smiles": "COC(=O)Nc1nc2cc(C(=O)c3ccc(F)cc3)ccc2[nH]1", "note": "[Flubendazole]", "cell-surface Lgr5 expression": "inactive: 0.859"}
{"smiles": "O=C(O[C@@H]1C[C@@H]2C[C@H]3C[C@H](C1)N2CC3=O)c1c[nH]c2ccccc12", "note": "[Dolasetron mesylate (Anzamet)]", "cell-surface Lgr5 expression": "inactive: 0.948"}
{"smiles": "O=S(=O)([O-])[O-].[Zn+2]", "note": "[Zinc sulfate]", "cell-surface Lgr5 expression": "inactive: 0.625"}
{"smiles": "CCCCCCCC/C=C\\CCCCCCCC(=O)O", "note": "[Oleic acid (cis-9-Octadecenoic acid)]", "cell-surface Lgr5 expression": "inactive: 0.862"}
{"smiles": "CC(C)(C)NCC(O)c1ccc(O)c(CO)c1", "note": "(stereo not drawn) [Albuterol (Salbutamol)]", "cell-surface Lgr5 expression": "inactive: 1.22"}
{"smiles": "N.O.O=P([O-])([O-])O.[Mg+2]", "note": "[Ammonium magnesium phosphate hydrate]", "cell-surface Lgr5 expression": "inactive: 1.04"}
{"smiles": "Cn1c(=O)c2c(ncn2C)n(C)c1=O", "note": "[Caffeine citrate]", "cell-surface Lgr5 expression": "inactive: 0.554"}
{"smiles": "Cn1c(=O)c2c(ncn2C)n(C)c1=O", "note": "[Caffeine-sodium benzoate]", "cell-surface Lgr5 expression": "inactive: 0.583"}
{"smiles": "CN[C@@H]1CCc2[nH]c3ccc(C(N)=O)cc3c2C1", "note": "[Frovatriptan succinate]", "cell-surface Lgr5 expression": "inactive: 0.445"}
{"smiles": "CN(C)CCCC1(c2ccc(F)cc2)OCc2cc(C#N)ccc21", "note": "(stereo not drawn) [Citalopram]", "cell-surface Lgr5 expression": "inactive: 0.474"}
{"smiles": "CCCC(CCC)C(=O)O", "note": "[Valproic acid (2-propylpentanoic acid)]", "cell-surface Lgr5 expression": "inactive: 0.932"}
{"smiles": "Cc1cc(N)c2ccccc2c1O", "note": "[Vitamin K5 hydrochloride]", "cell-surface Lgr5 expression": "inactive: 0.778"}
{"smiles": "Cc1onc(-c2ccccc2)c1C(=O)N[C@@H]1C(=O)N2[C@@H]1SC(C)(C)[C@@H]2C(=O)O", "note": "[Oxacillin]", "cell-surface Lgr5 expression": "inactive: 0.726"}
{"smiles": "OCC(O)CN1CCN(c2ccccc2)CC1", "note": "(stereo not drawn) [Dropropizine]", "cell-surface Lgr5 expression": "inactive: 1.14"}
{"smiles": "CN(C)CCC(c1ccc(Cl)cc1)c1ccccn1", "note": "(stereo not drawn) [Chlorpheniramine]", "cell-surface Lgr5 expression": "inactive: 1.18"}
{"smiles": "C=C1c2c(Cl)ccc(O)c2C(=O)C2=C(O)[C@]3(O)C(=O)C(C(N)=O)=C(O)[C@@H](N(C)C)[C@@H]3[C@@H](O)[C@H]12", "note": "[Meclocycline]", "cell-surface Lgr5 expression": "inactive: 0.772"}
{"smiles": "COC1=CC(=O)C[C@@H](C)[C@]12Oc1c(Cl)c(OC)cc(OC)c1C2=O", "note": "[Griseofulvin]", "cell-surface Lgr5 expression": "inactive: 0.802"}
{"smiles": "Oc1cccc(O)c1O", "note": "[Pyrogallol]", "cell-surface Lgr5 expression": "inactive: 1.15"}
{"smiles": "NCCc1cc[nH]n1", "note": "[Betazole]", "cell-surface Lgr5 expression": "inactive: 1.05"}
{"smiles": "NCCC(O)(P(=O)(O)O)P(=O)(O)O", "note": "[Pamidronate disodium]", "cell-surface Lgr5 expression": "inactive: 0.683"}
{"smiles": "CN(C)CCN(Cc1ccc(Cl)cc1)c1ccccn1", "note": "[Chloropyramine]", "cell-surface Lgr5 expression": "inactive: 1.27"}
{"smiles": "NS(=O)(=O)Cc1noc2ccccc12", "note": "[Zonisamide]", "cell-surface Lgr5 expression": "inactive: 1.07"}
{"smiles": "Cc1ccc(C)c(OCCCC(C)(C)C(=O)O)c1", "note": "[Gemfibrozil]", "cell-surface Lgr5 expression": "inactive: 1.02"}
{"smiles": "NC(=O)c1ccc[n+]([C@@H]2O[C@H](COP(=O)([O-])OP(=O)(O)OC[C@H]3O[C@@H](n4cnc5c(N)ncnc54)[C@H](O)[C@@H]3O)[C@@H](O)[C@H]2O)c1", "note": "[Nadide (beta nicotinamide adenine dinucleotide phosphate)]", "cell-surface Lgr5 expression": "inactive: 1.08"}
{"smiles": "Cc1cc2c(OCC(CNC(C)(C)C)OC(=O)c3ccccc3)cccc2[nH]1", "note": "(stereo not drawn) [Bopindolol Maleate]", "cell-surface Lgr5 expression": "inactive: 1.3"}
{"smiles": "O=C(O)C(O)C(O)C(=O)O", "note": "[Tartaric acid L-(+)]", "cell-surface Lgr5 expression": "inactive: 1.1"}
{"smiles": "NC(=O)OCC(O)COc1ccc(Cl)cc1", "note": "(stereo not drawn) [Chlorphenesin carbamate]", "cell-surface Lgr5 expression": "inactive: 1.01"}
{"smiles": "COC(=O)CCc1ccc(OCC(O)CNC(C)C)cc1", "note": "(stereo not drawn) [Esmolol]", "cell-surface Lgr5 expression": "inactive: 1.29"}
{"smiles": "C[C@]12CCC(=O)C=C1C=C[C@@H]1[C@@H]2CC[C@@]2(C)[C@H]1CC[C@@]21CCC(=O)O1", "note": "[Canrenone]", "cell-surface Lgr5 expression": "inactive: 1.31"}
